Paper PMC5764417
Results are given in words; binding and its absence hold for the method and conditions named. In cells and extracts the contact can be indirect. A yes stands for co-enrichment or nearness to the bait. Other partners may have been found.

The chains behind the UniProt entries cited, without tags or fusion partners. Where a name states a change or a piece, a line headed by the entry shows the natural chain unless it says otherwise.
UniProt Q57WR0: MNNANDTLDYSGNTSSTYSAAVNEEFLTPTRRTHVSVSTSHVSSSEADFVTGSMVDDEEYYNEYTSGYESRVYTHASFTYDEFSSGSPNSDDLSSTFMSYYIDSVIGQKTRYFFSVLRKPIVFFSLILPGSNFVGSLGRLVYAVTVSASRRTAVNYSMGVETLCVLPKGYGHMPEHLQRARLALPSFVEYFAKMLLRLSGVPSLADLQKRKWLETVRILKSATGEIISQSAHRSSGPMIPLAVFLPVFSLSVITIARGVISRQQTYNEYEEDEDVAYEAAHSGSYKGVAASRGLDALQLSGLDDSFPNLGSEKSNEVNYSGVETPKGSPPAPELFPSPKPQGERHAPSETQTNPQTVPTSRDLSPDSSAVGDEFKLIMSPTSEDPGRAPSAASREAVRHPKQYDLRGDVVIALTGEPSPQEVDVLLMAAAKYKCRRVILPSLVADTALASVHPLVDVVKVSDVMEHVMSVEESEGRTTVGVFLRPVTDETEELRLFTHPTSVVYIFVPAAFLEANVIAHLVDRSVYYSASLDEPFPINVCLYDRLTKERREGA
UniProt Q57YB6: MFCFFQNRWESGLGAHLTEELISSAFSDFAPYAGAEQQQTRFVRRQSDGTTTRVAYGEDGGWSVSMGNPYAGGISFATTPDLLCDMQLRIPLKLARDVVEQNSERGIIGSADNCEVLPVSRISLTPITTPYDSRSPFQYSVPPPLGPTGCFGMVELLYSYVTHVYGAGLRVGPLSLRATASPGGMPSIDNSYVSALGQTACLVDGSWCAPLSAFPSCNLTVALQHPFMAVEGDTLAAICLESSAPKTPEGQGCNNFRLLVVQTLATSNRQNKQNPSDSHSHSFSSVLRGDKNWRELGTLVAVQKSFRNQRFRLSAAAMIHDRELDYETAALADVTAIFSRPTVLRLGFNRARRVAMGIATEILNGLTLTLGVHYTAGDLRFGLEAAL
UniProt Q581S0: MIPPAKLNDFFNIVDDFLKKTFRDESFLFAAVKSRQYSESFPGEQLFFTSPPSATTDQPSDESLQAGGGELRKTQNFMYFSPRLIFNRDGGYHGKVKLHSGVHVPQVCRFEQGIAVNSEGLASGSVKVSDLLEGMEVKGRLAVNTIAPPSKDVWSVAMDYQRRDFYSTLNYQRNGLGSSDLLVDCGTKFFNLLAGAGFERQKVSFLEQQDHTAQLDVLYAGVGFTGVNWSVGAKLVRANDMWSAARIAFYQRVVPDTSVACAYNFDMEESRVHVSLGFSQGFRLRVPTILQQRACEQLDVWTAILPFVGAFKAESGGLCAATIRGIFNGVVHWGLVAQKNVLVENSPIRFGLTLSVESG

Assays:
Experiment in all cases: affinity purification with mass spectrometry; SILAC-IP: cells with and without the tagged bait mixed, solubilized in 20 mM Tris-HCl pH 7.4, 0.1 mM EDTA, 100 mM NaCl, 10% glycerol, 1.5% digitonin; anti-HA or anti-Myc affinity beads, 2 h at 4°C; eluates analysed by quantitative LC-MS; three biological replicates
[1] = molecular target: Myc-tagged TAC60 (T. brucei) (UniProt Q57WR0)
[2] = molecular target: in situ HA-tagged TAC42 (T. brucei) (UniProt Q57YB6)
[3] = molecular target: in situ HA-tagged TAC40 (T. brucei) (UniProt Q581S0)

Row | binding [1] | binding [2] | binding [3] | Substance
1 | binds | – | – | TAC42 (from UniProt Q57YB6)
2 | binds | binds | – | TAC40 (from UniProt Q581S0)
3 | – | binds | binds | TAC60 (from UniProt Q57WR0)
